In PMC11427010:
No constants are given. Whether binding was seen depends on the method and setting. For part of these data: Binding seen in cells or lysates may run through a third protein. Some binding calls cover weakened binding; strength is not graded here.

Amino acid sequences for entries named in this document (tags omitted). Residues count along the entry.
UniProt Q2VLH6, residues 39-1121: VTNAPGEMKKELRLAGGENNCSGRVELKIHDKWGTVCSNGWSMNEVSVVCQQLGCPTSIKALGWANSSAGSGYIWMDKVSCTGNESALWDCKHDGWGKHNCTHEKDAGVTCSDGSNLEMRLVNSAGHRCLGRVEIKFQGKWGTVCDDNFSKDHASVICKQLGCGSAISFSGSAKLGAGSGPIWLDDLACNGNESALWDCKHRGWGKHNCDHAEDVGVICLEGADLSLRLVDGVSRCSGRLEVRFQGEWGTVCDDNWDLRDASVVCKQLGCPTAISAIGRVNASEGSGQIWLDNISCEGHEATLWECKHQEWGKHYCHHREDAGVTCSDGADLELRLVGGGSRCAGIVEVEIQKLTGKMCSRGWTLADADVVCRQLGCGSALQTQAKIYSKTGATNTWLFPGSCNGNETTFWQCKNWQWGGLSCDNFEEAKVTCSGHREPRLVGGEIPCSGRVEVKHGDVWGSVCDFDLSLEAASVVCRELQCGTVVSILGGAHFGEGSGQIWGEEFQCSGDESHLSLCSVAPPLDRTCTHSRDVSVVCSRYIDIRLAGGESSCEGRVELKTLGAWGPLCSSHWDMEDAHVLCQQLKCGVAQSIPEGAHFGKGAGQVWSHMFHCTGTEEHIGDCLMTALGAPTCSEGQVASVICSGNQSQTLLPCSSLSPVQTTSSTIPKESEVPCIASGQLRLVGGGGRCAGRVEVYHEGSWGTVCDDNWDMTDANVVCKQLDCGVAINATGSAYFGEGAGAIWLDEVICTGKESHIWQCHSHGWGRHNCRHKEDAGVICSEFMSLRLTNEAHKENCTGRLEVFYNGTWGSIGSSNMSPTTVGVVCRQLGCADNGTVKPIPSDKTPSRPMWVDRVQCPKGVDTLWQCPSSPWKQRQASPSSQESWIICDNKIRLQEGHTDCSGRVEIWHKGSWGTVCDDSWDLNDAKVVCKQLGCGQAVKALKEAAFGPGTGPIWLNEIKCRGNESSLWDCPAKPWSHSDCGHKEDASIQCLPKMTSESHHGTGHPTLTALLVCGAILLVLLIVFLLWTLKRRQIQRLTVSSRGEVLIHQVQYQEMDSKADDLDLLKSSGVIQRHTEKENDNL

Columns and labels:
[1] = target: Hemoglobin scavenger receptor CD163 (membrane-bound) (mouse (endogenous in Townes mouse liver)) (UniProt Q2VLH6); experiment: proximity ligation; fixed, permeabilised cryosections of control (AS) and SCD mouse liver; Duolink in situ detection reagent red; controls with just one primary antibody; confocal imaging
[2] = target: Hemoglobin scavenger receptor CD163 (membrane-bound) (mouse (endogenous in Townes mouse liver)) (UniProt Q2VLH6); experiment: co-IP; SCD mouse liver tissue lysate; Pierce Direct IP kit, antibody cross-linked to resin (the methods name anti-TLR9 and normal mouse IgG), 4°C overnight, immunoblot; also livers after hypoxia, after LPS and of 7-mo-old SCD mice
[3] = target: Hemoglobin scavenger receptor CD163 (membrane-bound) (mouse (endogenous in Townes mouse liver)) (UniProt Q2VLH6); experiment: ELISA; sandwich: SCD mouse liver lysate applied to a plate coated with CD163-specific antibodies; antibodies to Hba or HO-1 or control IgG with HRP-conjugated secondary antibody; absorbance at 450 nm

binding [1]: binds
binding [2]: binds
binding [3]: binds
B1: heme oxygenase 1 (enzyme, UniProt P14901 1-289)
chain: MERPQPDSMPQDLSEALKEATKEVHIQAENAEFMKNFQKGQVSREGFKLVMASLYHIYTALEEEIERNKQNPVYAPLYFPEELHRRAALEQDMAFWYGPHWQEIIPCTPATQHYVKRLHEVGRTHPELLVAHAYTRYLGDLSGGQVLKKIAQKAMALPSSGEGLAFFTFPNIDSPTKFKQLYRARMNTLEMTPEVKHRVTEEAKTAFLLNIELFEELQVMLTEEHKDQSPSQMASLRQRPASLVQDTAPAETPRGKPQISTSSSQTPLLQWVLTLSFLLATVAVGIYAM
